The supplement of paper PMC12067093, “Discovery and optimisation of a covalent ligand for TRIM25 and its application to targeted protein ubiquitination” (Chemical Science, 2025)
The list shows a part of the results.

Protein sequences, listed by entry. Tags and fused reporters are not part of them. Lines headed by an entry give the natural chain unless they say otherwise; changes in a name come on top.
UniProt Q9UGP4: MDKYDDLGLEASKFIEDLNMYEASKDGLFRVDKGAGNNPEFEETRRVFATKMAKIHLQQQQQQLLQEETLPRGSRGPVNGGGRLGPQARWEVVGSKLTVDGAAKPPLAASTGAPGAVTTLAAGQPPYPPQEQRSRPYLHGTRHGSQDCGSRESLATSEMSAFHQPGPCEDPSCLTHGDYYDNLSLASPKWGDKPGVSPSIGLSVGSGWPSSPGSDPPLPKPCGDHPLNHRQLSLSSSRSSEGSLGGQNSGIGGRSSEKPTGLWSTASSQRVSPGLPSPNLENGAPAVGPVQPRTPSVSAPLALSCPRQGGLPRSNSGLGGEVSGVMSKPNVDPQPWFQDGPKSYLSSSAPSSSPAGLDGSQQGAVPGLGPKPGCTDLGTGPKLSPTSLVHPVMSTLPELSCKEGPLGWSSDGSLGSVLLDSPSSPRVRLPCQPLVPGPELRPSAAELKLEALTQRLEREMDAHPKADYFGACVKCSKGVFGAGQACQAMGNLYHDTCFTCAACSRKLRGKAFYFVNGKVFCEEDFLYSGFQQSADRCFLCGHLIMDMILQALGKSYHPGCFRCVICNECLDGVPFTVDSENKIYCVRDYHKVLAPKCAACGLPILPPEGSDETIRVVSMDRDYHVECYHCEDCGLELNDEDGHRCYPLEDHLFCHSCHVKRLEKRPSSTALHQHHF
UniProt P48059, whole entry, looked up: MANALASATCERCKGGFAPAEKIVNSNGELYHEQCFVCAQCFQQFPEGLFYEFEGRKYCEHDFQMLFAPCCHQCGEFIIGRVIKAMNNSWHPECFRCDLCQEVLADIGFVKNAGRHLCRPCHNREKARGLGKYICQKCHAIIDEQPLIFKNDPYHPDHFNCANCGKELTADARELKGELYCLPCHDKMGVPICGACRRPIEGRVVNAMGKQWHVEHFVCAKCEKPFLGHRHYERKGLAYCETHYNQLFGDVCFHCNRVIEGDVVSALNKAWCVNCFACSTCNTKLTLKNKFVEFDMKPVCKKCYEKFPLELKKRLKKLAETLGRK
UniProt P50851: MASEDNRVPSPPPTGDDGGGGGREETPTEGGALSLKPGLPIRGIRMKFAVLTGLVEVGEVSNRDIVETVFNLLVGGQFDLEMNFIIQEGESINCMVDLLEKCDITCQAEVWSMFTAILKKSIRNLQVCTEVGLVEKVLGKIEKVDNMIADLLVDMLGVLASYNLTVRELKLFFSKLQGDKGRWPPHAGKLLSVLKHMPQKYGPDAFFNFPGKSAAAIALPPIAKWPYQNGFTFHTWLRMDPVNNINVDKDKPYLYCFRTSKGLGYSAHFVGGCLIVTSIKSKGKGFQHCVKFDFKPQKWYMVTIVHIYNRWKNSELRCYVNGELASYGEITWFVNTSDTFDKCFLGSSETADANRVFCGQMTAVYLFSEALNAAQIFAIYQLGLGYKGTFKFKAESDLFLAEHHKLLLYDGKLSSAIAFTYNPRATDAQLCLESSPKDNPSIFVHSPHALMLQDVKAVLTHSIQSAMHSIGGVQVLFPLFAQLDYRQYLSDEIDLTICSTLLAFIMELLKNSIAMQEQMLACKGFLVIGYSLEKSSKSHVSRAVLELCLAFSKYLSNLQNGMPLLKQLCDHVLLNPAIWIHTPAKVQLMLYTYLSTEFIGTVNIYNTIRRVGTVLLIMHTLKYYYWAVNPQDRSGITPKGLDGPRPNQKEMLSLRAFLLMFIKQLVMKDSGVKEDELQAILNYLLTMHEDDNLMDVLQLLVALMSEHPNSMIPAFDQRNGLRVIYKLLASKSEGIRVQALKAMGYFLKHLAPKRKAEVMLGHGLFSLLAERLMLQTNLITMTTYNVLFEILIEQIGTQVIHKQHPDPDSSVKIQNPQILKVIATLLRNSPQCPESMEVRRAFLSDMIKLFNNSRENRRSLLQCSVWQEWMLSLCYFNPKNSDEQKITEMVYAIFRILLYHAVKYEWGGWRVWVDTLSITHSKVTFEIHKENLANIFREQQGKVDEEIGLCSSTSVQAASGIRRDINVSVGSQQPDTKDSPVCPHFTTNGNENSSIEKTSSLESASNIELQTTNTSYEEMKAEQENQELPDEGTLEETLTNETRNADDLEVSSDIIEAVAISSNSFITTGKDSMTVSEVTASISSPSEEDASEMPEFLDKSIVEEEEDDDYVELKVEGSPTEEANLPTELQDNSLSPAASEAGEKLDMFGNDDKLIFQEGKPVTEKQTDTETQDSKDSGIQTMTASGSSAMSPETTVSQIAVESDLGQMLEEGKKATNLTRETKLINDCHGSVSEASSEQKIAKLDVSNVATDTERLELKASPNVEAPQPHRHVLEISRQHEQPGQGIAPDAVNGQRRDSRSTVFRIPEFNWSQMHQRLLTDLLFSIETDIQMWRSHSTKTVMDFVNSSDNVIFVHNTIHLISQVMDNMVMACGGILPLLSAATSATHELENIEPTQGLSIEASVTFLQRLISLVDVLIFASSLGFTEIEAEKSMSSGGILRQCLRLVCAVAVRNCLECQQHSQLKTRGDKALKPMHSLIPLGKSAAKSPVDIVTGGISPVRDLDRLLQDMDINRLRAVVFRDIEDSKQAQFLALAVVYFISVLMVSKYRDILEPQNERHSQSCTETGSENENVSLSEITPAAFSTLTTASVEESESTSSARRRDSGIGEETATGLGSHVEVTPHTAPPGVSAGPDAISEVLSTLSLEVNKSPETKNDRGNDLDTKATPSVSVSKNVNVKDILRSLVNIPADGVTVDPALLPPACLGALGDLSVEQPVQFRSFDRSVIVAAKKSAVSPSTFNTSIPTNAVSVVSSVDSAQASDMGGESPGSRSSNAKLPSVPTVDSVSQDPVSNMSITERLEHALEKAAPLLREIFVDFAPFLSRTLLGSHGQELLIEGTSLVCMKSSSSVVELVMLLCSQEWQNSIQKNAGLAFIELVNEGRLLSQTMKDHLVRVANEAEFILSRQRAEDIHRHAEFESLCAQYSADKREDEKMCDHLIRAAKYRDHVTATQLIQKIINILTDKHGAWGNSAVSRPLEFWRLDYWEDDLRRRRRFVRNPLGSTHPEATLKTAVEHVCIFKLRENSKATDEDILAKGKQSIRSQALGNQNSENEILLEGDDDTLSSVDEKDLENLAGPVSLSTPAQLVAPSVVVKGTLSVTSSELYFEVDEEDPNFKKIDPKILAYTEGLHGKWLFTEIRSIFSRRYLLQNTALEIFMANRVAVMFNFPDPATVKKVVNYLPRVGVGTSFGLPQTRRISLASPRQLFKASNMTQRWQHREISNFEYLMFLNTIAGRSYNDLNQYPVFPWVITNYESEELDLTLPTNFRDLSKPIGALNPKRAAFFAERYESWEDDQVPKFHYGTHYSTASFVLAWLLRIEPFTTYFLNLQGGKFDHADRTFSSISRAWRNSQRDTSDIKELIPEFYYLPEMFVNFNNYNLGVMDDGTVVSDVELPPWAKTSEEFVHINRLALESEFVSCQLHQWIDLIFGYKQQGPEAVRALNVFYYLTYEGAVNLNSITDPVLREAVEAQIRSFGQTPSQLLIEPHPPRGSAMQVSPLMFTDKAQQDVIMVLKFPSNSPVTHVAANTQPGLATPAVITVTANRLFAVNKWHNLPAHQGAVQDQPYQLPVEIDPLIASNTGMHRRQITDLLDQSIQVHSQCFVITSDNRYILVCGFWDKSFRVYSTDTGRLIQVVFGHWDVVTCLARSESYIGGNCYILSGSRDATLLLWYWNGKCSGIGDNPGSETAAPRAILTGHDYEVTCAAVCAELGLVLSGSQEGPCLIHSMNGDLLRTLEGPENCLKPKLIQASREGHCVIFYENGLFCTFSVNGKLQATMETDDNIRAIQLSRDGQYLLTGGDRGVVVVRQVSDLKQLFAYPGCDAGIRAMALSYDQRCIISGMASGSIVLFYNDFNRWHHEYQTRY
UniProt Q8TDW0: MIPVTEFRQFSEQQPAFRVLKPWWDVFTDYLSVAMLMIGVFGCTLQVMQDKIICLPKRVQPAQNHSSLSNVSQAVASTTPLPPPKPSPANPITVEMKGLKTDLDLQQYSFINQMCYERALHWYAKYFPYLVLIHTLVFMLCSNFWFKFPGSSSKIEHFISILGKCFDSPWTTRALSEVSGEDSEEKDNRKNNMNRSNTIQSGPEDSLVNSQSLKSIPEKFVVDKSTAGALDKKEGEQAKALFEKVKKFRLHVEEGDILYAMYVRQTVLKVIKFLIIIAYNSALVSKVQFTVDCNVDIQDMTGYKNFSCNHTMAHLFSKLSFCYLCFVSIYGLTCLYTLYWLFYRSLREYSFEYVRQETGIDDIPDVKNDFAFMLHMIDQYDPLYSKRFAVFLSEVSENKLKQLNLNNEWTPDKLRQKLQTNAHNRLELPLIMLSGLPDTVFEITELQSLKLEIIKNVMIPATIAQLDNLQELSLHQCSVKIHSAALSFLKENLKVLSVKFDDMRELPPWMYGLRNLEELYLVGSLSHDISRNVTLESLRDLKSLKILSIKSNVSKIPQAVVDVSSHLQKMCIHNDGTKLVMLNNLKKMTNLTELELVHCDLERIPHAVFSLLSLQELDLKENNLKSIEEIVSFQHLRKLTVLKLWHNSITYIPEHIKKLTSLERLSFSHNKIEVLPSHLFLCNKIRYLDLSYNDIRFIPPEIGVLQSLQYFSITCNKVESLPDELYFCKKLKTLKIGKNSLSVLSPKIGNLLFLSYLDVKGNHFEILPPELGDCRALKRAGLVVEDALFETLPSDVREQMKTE
UniProt Q9Y2L9: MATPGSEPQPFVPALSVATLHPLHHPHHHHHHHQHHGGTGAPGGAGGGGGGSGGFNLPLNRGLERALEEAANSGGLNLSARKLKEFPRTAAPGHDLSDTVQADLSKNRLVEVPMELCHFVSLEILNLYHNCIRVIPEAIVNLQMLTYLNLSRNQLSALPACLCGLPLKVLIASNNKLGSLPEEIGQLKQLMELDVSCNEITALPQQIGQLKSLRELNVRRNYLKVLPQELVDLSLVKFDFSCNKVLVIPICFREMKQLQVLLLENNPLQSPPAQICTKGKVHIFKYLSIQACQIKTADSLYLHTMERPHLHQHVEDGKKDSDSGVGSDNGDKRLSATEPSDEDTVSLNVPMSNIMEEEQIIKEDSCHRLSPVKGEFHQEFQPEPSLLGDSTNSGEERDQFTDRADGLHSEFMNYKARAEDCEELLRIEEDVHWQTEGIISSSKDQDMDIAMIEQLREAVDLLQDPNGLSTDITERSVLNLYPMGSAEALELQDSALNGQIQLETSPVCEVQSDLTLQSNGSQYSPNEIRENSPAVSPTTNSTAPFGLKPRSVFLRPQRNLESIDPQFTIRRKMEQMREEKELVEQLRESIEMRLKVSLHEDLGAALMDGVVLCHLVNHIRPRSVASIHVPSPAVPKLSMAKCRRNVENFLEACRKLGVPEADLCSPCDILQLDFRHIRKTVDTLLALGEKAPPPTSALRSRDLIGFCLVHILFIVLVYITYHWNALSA
UniProt Q96CX6, whole entry, looked up: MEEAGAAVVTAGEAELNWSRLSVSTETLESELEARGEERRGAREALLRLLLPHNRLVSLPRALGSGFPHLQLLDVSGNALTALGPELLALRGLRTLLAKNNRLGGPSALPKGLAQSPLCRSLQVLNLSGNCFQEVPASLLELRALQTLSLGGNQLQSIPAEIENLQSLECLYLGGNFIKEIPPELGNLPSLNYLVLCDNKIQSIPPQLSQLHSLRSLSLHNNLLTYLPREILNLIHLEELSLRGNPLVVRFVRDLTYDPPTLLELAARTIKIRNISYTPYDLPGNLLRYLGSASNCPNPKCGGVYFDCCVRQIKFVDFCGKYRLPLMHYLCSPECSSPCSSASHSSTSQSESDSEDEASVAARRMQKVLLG
UniProt Q96PV6, whole entry, looked up: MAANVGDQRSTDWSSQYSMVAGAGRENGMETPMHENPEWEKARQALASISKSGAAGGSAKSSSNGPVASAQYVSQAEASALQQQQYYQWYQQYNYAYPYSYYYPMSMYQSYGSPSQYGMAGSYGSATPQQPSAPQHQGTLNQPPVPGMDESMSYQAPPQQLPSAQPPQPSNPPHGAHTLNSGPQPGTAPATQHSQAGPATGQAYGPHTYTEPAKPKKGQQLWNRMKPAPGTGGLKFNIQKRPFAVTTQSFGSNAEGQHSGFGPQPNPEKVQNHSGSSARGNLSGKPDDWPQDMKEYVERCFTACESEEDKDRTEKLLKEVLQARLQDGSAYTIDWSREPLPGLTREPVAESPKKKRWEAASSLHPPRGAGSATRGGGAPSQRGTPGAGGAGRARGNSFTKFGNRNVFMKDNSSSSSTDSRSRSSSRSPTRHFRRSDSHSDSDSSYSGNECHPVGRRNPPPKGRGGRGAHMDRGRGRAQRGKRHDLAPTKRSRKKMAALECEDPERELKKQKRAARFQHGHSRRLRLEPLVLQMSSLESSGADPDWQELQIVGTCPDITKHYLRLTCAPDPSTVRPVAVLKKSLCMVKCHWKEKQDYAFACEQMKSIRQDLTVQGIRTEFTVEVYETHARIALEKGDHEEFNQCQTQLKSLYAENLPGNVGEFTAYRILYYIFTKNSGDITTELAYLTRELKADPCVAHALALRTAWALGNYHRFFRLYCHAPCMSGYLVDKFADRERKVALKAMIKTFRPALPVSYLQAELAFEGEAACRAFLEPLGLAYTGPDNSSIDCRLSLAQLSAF

Compound: CC1Cc2ccccc2N1C(=O)C1CCCN(C1)C(=O)CCl (mixture of isomers) [TRIM25 ligand 11 (diastereomer mixture)]
Test: probe-labelled cysteine peptide fold change vs DMSO (competition) (log2 fold change); higher = less target engagement (more negative = stronger competition)
Conditions: THP-1, incubation time: 4 h
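Also: competitive chemoproteomic profiling in live THP-1 cells with an iodoacetamide desthiobiotin (IA-DTB) probe, comparing probe-labelled peptide intensities in compound-treated cells against DMSO-treated controls.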

| Target | probe-labelled cysteine peptide fold change (10 µM) | probe-labelled cysteine peptide fold change (50 µM) |
| --- | --- | --- |
| LRMP_Q12912_264_LLESLTPLCEDDNQAQEIIK (UniProt Q12912) | -0.0507 | -0.00778 |
| LRPPRC_P42704_130_SCGSLLPELKLEER (UniProt P42704) | -0.415 | -0.186 |
| LIMD1_Q9UGP4_401_LSPTSLVHPVMSTLPELSCK (UniProt Q9UGP4) | -0.0626 | -0.356 |
| LIMK2_P53671_365_CDEETQK (UniProt P53671) | 0.0225 | -0.0271 |
| LIG1_P18858_895_QPEQATTSAQVACLYR (UniProt P18858) | -0.0444 | 0.163 |
| LRRC41_Q15345_607_GAQPAPLLCSVLK (UniProt Q15345) | -0.0129 | -0.0638 |
| LRPPRC_P42704_863_IHDVLCK (UniProt P42704) | 0.029 | -0.0148 |
| LRPPRC_P42704_208_LIASYCNVGDIEGASK (UniProt P42704) | -0.0272 | 0.141 |
| LIMS1_P48059_300_FVEFDMKPVCK (UniProt P48059) | -0.0288 | -0.0901 |
| LRBA_P50851_832_NSPQCPESMEVR (UniProt P50851) | 0.0452 | 0.0579 |
| LRCH3_Q96II8_740_IGVPQEQLCLPLHILEEK (UniProt Q96II8) | -0.28 | -0.246 |
| LRMDA_Q9H2I8_106_CFVLYK (UniProt Q9H2I8) | -0.00746 | -0.00207 |
| LRRC8C_Q8TDW0_774_GNHFEILPPELGDCR (UniProt Q8TDW0) | 0.256 | 0.0636 |
| LRCH1_Q9Y2L9_276_QLQVLLLENNPLQSPPAQICTK (UniProt Q9Y2L9) | -0.0442 | -0.147 |
| LRSAM1_Q6UWE0_193+205_EVCGAGTAAILQFLCK (UniProt Q6UWE0) | 0.184 | 0.0853 |
| LRCH4_O75427_224_IPVSFCR (UniProt O75427) | 0.0332 | 0.297 |
| LRRC59_Q96AG4_277_VTELQQQPLCTSVNTIYDNAVQGLR (UniProt Q96AG4) | -0.0377 | 0.0988 |
| LIMD1_Q9UGP4_305_TPSVSAPLALSCPR (UniProt Q9UGP4) | -0.0364 | -0.237 |
| LRRC8C_Q8TDW0_682_IEVLPSHLFLCNK (UniProt Q8TDW0) | 0.251 | 0.123 |
| LPXN_O60711_358_FHPEHFVCAFCLTQLSK (UniProt O60711) | -0.157 | -0.0688 |
| LSS_P48449_616_ACDFLLSR (UniProt P48449) | 0.0702 | -0.00256 |

| Target | probe-labelled cysteine peptide fold change (10 µM) | probe-labelled cysteine peptide fold change (50 µM) |
| --- | --- | --- |
| LRR1_Q96L50_220_KLPATIGDLIHLQELNLNDNHLESFSVALCHSTLQK (UniProt Q96L50) | 0.291 | -0.176 |
| LEMD3_Q9Y2U8_814_CSDNDGIVHIAVDK (UniProt Q9Y2U8) | -0.067 | 0.127 |
| LMNA_P02545_591_TVLCGTCGQPADK (UniProt P02545) | -0.0274 | -0.15 |
| LIN37_Q96GY3_28_NQLDAVLQCLLEK (UniProt Q96GY3) | -0.0927 | -0.121 |
| LILRB4_Q8NHJ6_144_SVTLLCQSR (UniProt Q8NHJ6) | 0.0853 | 0.0442 |
| LRWD1_Q9UFC0_281_LEPLHFLQCHSK (UniProt Q9UFC0) | -0.121 | -0.0558 |
| LPXN_O60711_178_VIHALGQSWHPEHFVCTHCK (UniProt O60711) | 0.0349 | -0.142 |
| LRRC57_Q8N9N7_128_TLSLSGNQLGALPPQLCSLR (UniProt Q8N9N7) | 0.294 | 0.14 |
| LRRC58_Q96CX6_119_GLAQSPLCR (UniProt Q96CX6) | -0.112 | -0.219 |
| LPXN_O60711_340_CISAMGYK (UniProt O60711) | -0.125 | -0.00859 |
| LPP_Q93052_499+502+505_AYHPHCFTCVMCHR (UniProt Q93052) | 0.0633 | 0.121 |
| LRPPRC_P42704_722_AKYESDMVTGGYAALINLCCR (UniProt P42704) | -0.101 | -0.0584 |
| LENG8_Q96PV6_500_MAALECEDPER (UniProt Q96PV6) | -0.0959 | -0.102 |
| LSS_P48449_410_MQGTNGSQIWDTAFAIQALLEAGGHHRPEFSSCLQK (UniProt P48449) | 0.135 | 0.467 |
| LPCAT1_Q8NF37_443_MYGAQEDGSVGEGDLSCILK (UniProt Q8NF37) | 0.114 | 0.0394 |
| LRBA_P50851_2675_CSGIGDNPGSETAAPR (UniProt P50851) | -0.17 | 0.157 |
| LIMS1_P48059_193_MGVPICGACR (UniProt P48059) | -0.114 | -0.0746 |
| LRCH4_O75427_571_LQRPLPEDLAEALASGVILCQLANQLRPR (UniProt O75427) | -0.0878 | 0.0638 |
| LMNB2_Q03252_212_CQSLQEELDFRK (UniProt Q03252) | -0.019 | -0.0559 |
| LIMS1_P48059_281_AWCVNCFACSTCNTK (UniProt P48059) | 0.0469 | 0.198 |
| LRCH4_O75427_102_NRFPEVPEAACQLVSLEGLSLYHNCLR (UniProt O75427) | 0.354 | 0.263 |

| Target | probe-labelled cysteine peptide fold change (10 µM) | probe-labelled cysteine peptide fold change (50 µM) |
| --- | --- | --- |
| LSG1_Q9H089_547_LLYCHPPPGRDPVTFQHQHQR (UniProt Q9H089) | -0.272 | -0.257 |
| LSM7_Q9UK45_85_GTSVVLICPQDGMEAIPNPFIQQQDA (UniProt Q9UK45) | 0.176 | 0.28 |
| LPIN2_Q92539_322_DASMEDTVCTIVKPK (UniProt Q92539) | -0.311 | -0.467 |
| LRCH1_Q9Y2L9_421_AEDCEELLR (UniProt Q9Y2L9) | -0.00975 | 0.0131 |
| LMAN2_Q12907_107_SKEGSIWNHQPCFLK (UniProt Q12907) | -0.308 | -0.535 |
| LRRC8C_Q8TDW0_599_MTNLTELELVHCDLER (UniProt Q8TDW0) | 0.076 | 0.0824 |
| LSM12_Q3MHD2_151_NIVVMEEVVITPPYQVENCK (UniProt Q3MHD2) | -0.0712 | 0.0313 |
| LRRC47_Q8N1G4_390_GPLLYCARPPQDLK (UniProt Q8N1G4) | -0.116 | -0.123 |
| LIMS1_P48059_161+164_NDPYHPDHFNCANCGK (UniProt P48059) | 0.0151 | 0.0736 |
| LIMA1_Q9UHB6_393_ETCVECQK (UniProt Q9UHB6) | 0.109 | 0.0997 |
| LPP_Q93052_524_SLDGIPFTVDAGGLIHCIEDFHK (UniProt Q93052) | 0.00908 | -0.0913 |
| LMNB1_P20700_198_CQSLTEDLEFR (UniProt P20700) | 0.0133 | 0.132 |
| LPCAT2_Q7L5N7_228_SCLITFKPGAFIPGVPVQPVLLR (UniProt Q7L5N7) | -0.154 | 0.0199 |
| LIG3_P49916_929_KAADETLCQTK (UniProt P49916) | -0.239 | -0.355 |
| LRP1_Q07954_2741_FCSEAQFECQNHR (UniProt Q07954) | 0.539 | 0.205 |
| LPIN1_Q14693_843_LCEVVDHVFPLLK (UniProt Q14693) | -0.0275 | 0.0716 |
| LRRC41_Q15345_297_CAAALMASR (UniProt Q15345) | -0.0623 | -0.172 |
| LPP_Q93052_502_AYHPHCFTCVMCHR (UniProt Q93052) | 0.0432 | 0.142 |
| LRRC8A_Q8IWT6_57_MICLPCK (UniProt Q8IWT6) | -0.00487 | 0.0461 |
| LRPPRC_P42704_927_LQWFCDR (UniProt P42704) | 0.0337 | 0.0237 |
| LPIN3_Q9BQK8_443_SLRDPNPEHEPEPTLDTVDTIALSLCGGLADSR (UniProt Q9BQK8) | -0.185 | -0.178 |

| Target | probe-labelled cysteine peptide fold change (10 µM) | probe-labelled cysteine peptide fold change (50 µM) |
| --- | --- | --- |
| LRRC58_Q96CX6_197_EIPPELGNLPSLNYLVLCDNK (UniProt Q96CX6) | -0.195 | -0.185 |
| LGALSL_Q3ZCW2_41_LIVPFCGHIK (UniProt Q3ZCW2) | -0.0785 | 0.0213 |
| LIMK1_P53667_49_IYDGQYLQALNADWHADCFR (UniProt P53667) | 0.206 | 0.00609 |
| LIPA_P38571_209_MFFALGPVASVAFCTSPMAK (UniProt P38571) | 0.0202 | 0.132 |
| LIG3_P49916_336_IFNCNPDDMAR (UniProt P49916) | -0.00217 | 0.0218 |
| LGALSL_Q3ZCW2_130_VEILCEHPR (UniProt Q3ZCW2) | 0.275 | 0.0761 |
| LIG4_P49917_510_VGSGCTMK (UniProt P49917) | -0.0615 | -0.0366 |
| LEMD3_Q9Y2U8_547_LAQLAGDHECGSSSQR (UniProt Q9Y2U8) | 0.0851 | -0.131 |
| LRRC8A_Q8IWT6_768+776_GNRLECLPVELGECPLLK (UniProt Q8IWT6) | -0.15 | 0.0257 |
| LPCAT1_Q8NF37_211_WPQIMIFPEGTCTNR (UniProt Q8NF37) | -0.0136 | -0.00321 |
| LRCH4_O75427_105_CLNPALGNLTALTYLNLSR (UniProt O75427) | -0.113 | -0.404 |
| LIG3_P49916_499_KCPNGMFSEIK (UniProt P49916) | -0.139 | -0.327 |
| LEMD2_Q8NC56_261_KTDEFCQAK (UniProt Q8NC56) | 0.0439 | 0.0684 |
| LRRC8C_Q8TDW0_728_VESLPDELYFCK (UniProt Q8TDW0) | 0.407 | -0.143 |
| LNPEP_Q9UIQ6_35_EPCLHPLEPDEVEYEPR (UniProt Q9UIQ6) | 0.0621 | -0.106 |
| LENG8_Q96PV6_723_LYCHAPCMSGYLVDK (UniProt Q96PV6) | -0.0117 | 0.103 |
| LONP1_P36776_682_ALCGLDESK (UniProt P36776) | -0.112 | -0.104 |
| LPP_Q93052_524_SLDGIPFTVDAGGLIHCIEDFHKK (UniProt Q93052) | -0.207 | -0.131 |
| LGALS3_P17931_173_VIVCNTK (UniProt P17931) | 0.033 | 0.104 |
| LIMS1_P48059_278+281_AWCVNCFACSTCNTK (UniProt P48059) | 0.119 | 0.143 |
| LONP1_P36776_909_AGVTCIVLPAENK (UniProt P36776) | -0.00716 | -0.0907 |

Record cards, from the list above:
LIMD1_Q9UGP4_401_LSPTSLVHPVMSTLPELSCK (UniProt Q9UGP4) in the list: probe-labelled cysteine peptide fold change (10 µM) = -0.0626; probe-labelled cysteine peptide fold change (50 µM) = -0.356
LPCAT1_Q8NF37_443_MYGAQEDGSVGEGDLSCILK (UniProt Q8NF37) in the list: probe-labelled cysteine peptide fold change (10 µM) = 0.114; probe-labelled cysteine peptide fold change (50 µM) = 0.0394
LGALSL_Q3ZCW2_130_VEILCEHPR (UniProt Q3ZCW2) in the list: probe-labelled cysteine peptide fold change (10 µM) = 0.275; probe-labelled cysteine peptide fold change (50 µM) = 0.0761
LRPPRC_P42704_722_AKYESDMVTGGYAALINLCCR (UniProt P42704) in the list: probe-labelled cysteine peptide fold change (10 µM) = -0.101; probe-labelled cysteine peptide fold change (50 µM) = -0.0584
